Source: PubChem BioAssay AID720505 (Drosophila RNAi Screening Center, 2013)
The screen tested about 20,000 reagents; this is a random part of those that have a named target and a result. Of all reagents, about 2,100 (10%) are marked active. 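Raw plate signals without normalisation; calls rest on control-based scores that were not deposited; replicate 2 separates called from uncalled poorly.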 A number with no mark means an inactive call. No sequences are given here. The record does not give: the amount of reagent, the time to read-out.

Assay: 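Fly regulators or components of the CRAC channel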 (primary screen)
System: Drosophila S2R+ cells
Reagents: long dsRNA against Drosophila genes
Conditions: thapsigargin (2 µM) in calcium-free buffer to empty internal stores, then 2 mM calcium added back
Read-out: 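Stores emptied by 2 µM thapsigargin without calcium, then 2 mM calcium re-added; fluo-4 fluorescence followed by FLIPR in 384-well plates, per-well averaged endpoint, raw; two screen passes, some wells retested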
Direction: calcium signal and retest calcium signal: higher = more calcium entry after store depletion
Hit rule: 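About 1500 genes called as lowering calcium entry, by varying amounts, judged against per-plate control wells with STIM1 as positive and Rho1 as negative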
Calls: active = called as lowering calcium entry; inactive = not called

Against CG13018 [DRSC06274], the values are calcium signal, replicate 1 = 93.3; calcium signal, replicate 2 = 158.
Knock-down of CG12170 [DRSC12199] came out at: calcium signal, replicate 1 = 148; calcium signal, replicate 2 = 136; retest calcium signal, replicate 1 = 124; retest calcium signal, replicate 2 = 101.
Knock-down of CG10237 [DRSC02029] came out at: calcium signal, replicate 1 = 110; calcium signal, replicate 2 = 144.
TwdlQ [DRSC14745] gave calcium signal, replicate 1 = 108; calcium signal, replicate 2 = 95.7.
TwdlQ [DRSC23107] showed calcium signal, replicate 1 = 179; calcium signal, replicate 2 = 142.
dsx [DRSC16934] scored calcium signal, replicate 1 = 95.1; calcium signal, replicate 2 = 97.7; retest calcium signal, replicate 1 = 180; retest calcium signal, replicate 2 = 131.
Knock-down of dsx [DRSC21495] resulted in: calcium signal, replicate 1 = 108; calcium signal, replicate 2 = 121.
Against Rab32 [DRSC05146] the deposit lists calcium signal, replicate 1 = 64.6; calcium signal, replicate 2 = 89.3.
Rab32 [DRSC07522] scored calcium signal, replicate 1 = 114; calcium signal, replicate 2 = 113.
sad [DRSC16630] gave calcium signal, replicate 1 = 183; calcium signal, replicate 2 = 92.9.
CG1909 [DRSC17150] scored calcium signal, replicate 1 = 114; calcium signal, replicate 2 = 83.1.
BaraB [DRSC06420] scored calcium signal, replicate 1 = 98.8; calcium signal, replicate 2 = 74.4.
